Experimental data as given in PubChem BioAssay AID1794844 (National Center for Advancing Translational Sciences (NCATS), 2023).
The campaign covered roughly 2,800 compounds. Fewer than 10 were called active. Not shown: some 7% with an inconclusive outcome. The call rests on the fitted dose curve; in most records, active means well fitted inhibition curve with a large enough effect; inconclusive means small, poorly fitted or top-dose-only effect; inactive means no such curve, though single readings can be large or run the other way. This is one part of the list.

Protein sequences, listed by entry. Tags and fused reporters are not part of them. Lines headed by an entry give the natural chain unless they say otherwise; changes in a name come on top.
UniProt C7C422: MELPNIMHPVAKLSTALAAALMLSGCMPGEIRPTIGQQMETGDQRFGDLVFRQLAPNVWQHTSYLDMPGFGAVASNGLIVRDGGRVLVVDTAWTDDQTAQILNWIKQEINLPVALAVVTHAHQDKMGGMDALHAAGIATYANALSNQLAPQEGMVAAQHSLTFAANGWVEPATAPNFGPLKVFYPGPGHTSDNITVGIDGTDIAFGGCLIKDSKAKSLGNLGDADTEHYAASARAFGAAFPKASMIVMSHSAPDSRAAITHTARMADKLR

Molecular target: Metallo-beta-lactamase type 2 (Klebsiella pneumoniae) (UniProt C7C422)
Assay: qHTS to identify inhibitors of the New Delhi Metallo-beta-lactamase (NDM): Nitrocefin screen against the machine-based learning selections. Further: % of control where 0% means no effect.
Conditions: NDM-1 enzyme, nitrocefin hydrolysis, absorbance 485 nm; activity, negative = inhibition: at the top concentration
How it was run: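 Hydrolysis by 2 nM NDM-1 was followed by absorbance after >30 min compound preincubation in HEPES pH 7.0 buffer with 1 uM Zn2SO4. For nitrocefin (16.7 uM, 15 min, 485 nm) and meropenem (50 uM, 30 min, 300 nm), each substrate ran on separate plates.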

activity, negative = inhibition, inactive:
COCCOc1ccnc(-c2noc([C@@H]3CCCN3CC3CC3)n2)c1 -5.18% [at 57.5 µM]
O=C(N[C@@H]1CN(C(=O)Nc2ccccc2)CCC[C@H]1O)c1ccc(OCCN2CCOCC2)cc1 -6.03%
O=C(Cc1c[nH]c2ncc(-c3cccnc3)cc12)NCc1ccccc1 -5.99% [at 57.5 µM]
Cc1ncc2n1C(=O)N(C1CCN(Cc3cccnc3)CC1)C2 -3.34% [at 57.5 µM]
CC(C)c1ccc(N2C(=O)N[C@@H]3CCN(S(=O)(=O)c4cccs4)[C@@H]3C2=O)cc1 0.233% [at 57.5 µM]
Cc1noc2nc3c(c(C(=O)N[C@H]4CC[C@H]4N)c12)CCC3 -7.9%
Cc1ccc([S+](=O)([O-])N2CCn3c(nnc3-c3ccccc3)C2)cc1 -6.74%
O=C(NCC1CN(Cc2ccncc2)CC12CN(c1ccccc1)C2)Nc1ccccc1 (stereo unspecified) -1.65% [at 57.5 µM]
C[C@@H](Nc1ccc(-c2nc(CCCc3ccccc3)no2)cn1)C(N)=O -5.67%
O=C(Nc1ccc(F)cc1)N1CC[C@H]2COC(=O)N2c2cc(F)ccc2C1 0.112% [at 57.5 µM]
CC(=O)c1cc(CC(=O)N2CCC3(CCCN(C(C)C)C3=O)C2)cs1 (stereo unspecified) 0.378%
COc1ccc2nc([C@H]3CCN(C4CCN(C(C)=O)CC4)C3)[nH]c2c1 3.67% [at 57.5 µM]
O=c1[nH]c(N2CCOCC2)nc2c1CCN(Cc1ccc(C(F)(F)F)cc1)CC2 -0.254%
CC(=O)N1CCN(c2cc(-c3noc([C@@H]4CCCN4Cc4ccccc4C)n3)ccn2)CC1 -0.621%
O=C(NCCCn1ccnn1)[C@H]1CNC[C@@H](C(=O)N2CCCC2)C1 0.996%
Cc1ccc2oc(C(=O)N(C)Cc3nc(-c4cccnc4)no3)c(C)c2c1 -8.24%
Cc1csc(NC(=O)[C@@H]2CCC[C@@H](NCC3CC3)CN(C)C(=O)C2)n1 -7.47% [at 57.5 µM]
O=C(Nc1cccnc1)c1ccnc(-c2nnc3ccc(N4CCOCC4)nn23)c1 -5.3% [at 57.5 µM]
CN(CCc1nc2ccc(Cl)cc2[nH]1)c1cc(C2CC(O)C2)nc(N)n1 (stereo unspecified) 1.04%
OC(c1ccccc1)c1nc(Nc2ccc3c(c2)OCO3)n[nH]1 (stereo unspecified) -4.45% [at 57.5 µM]
O=c1cc(-c2ccccn2)oc2c(-c3ccc(CO)cc3)nccc12 15.2% [at 57.5 µM]
COCCNC(=O)Cc1c[nH]c2ncc(-c3ccccc3)cc12 3.23% [at 57.5 µM]
CC(C)CN1CCC(c2nc3ccc(F)cc3c(=O)[nH]2)CC1 -1.85%
COc1ccccc1-c1nnc([C@H]2CCN(Cc3cccnc3)C2)o1 -0.956% [at 57.5 µM]
COc1ccc(C(=O)NC[C@@H]2C=C(C)[C@H](Cc3nnc(-c4ccncc4)o3)C[C@H]2C(C)C)cc1 -2.25%
CN1CCOc2c(C(=O)NCCC(N)=O)cc(-c3ccccc3O)cc21 -0.0482% [at 57.5 µM]
CN(Cc1ccccc1)Cc1cc(CC2(NCc3ccc(OC(F)(F)F)cc3)COC2)no1 -2.31%
COc1nc(C)c(C(=O)N2CCC(c3[nH]ncc3-c3ccccc3)CC2)s1 0.575%
CCCNC(=O)N(C1CCOCC1)C1CCN(C(=O)Nc2c(F)cccc2F)CC1 0.64%
CN(C)c1cccc(NC(=O)Cc2c[nH]c3ncc(-c4cccnc4)cc23)c1 2.98% [at 57.5 µM]
CNC(=O)C1(N2CCC[C@H]2C(=O)N2CCCC2)COC1 11.1% [at 76.7 µM]
Cc1noc(-c2cn(C3CCN(C(=O)c4ccccc4Cl)C3)nn2)n1 (stereo unspecified) -7.31%
COCCNC(=O)C[C@@H]1C[C@@H](C(C)C)[C@H](CNS(=O)(=O)c2ccc(OC)cc2)C=C1C 15.6%
CC(=O)N1CCN(C(=O)C[C@@H]2c3nc(NC(=O)C4CCCCC4)sc3C[C@@H]3[C@](C)(CO)[C@H](O)CC[C@]32C)CC1 1.19%
c1ccc(-c2cnc(Nc3ccncc3)c3c2CCO3)cc1 -9.68% [at 76.7 µM]
CN(Cc1ccccc1)C(=O)[C@@H]1Cc2nc[nH]c2CN1 -2.98% [at 76.7 µM]
Cc1nc2c(c(-c3ccc(O)cc3)n1)CN(C(=O)C1CC1)CCC2 -5.66% [at 57.5 µM]
O[C@@H]1C[C@@H](c2nc(-c3cnccn3)no2)N(Cc2ccc(F)cc2)C1 -2.44% [at 57.5 µM]
O=C(NCc1cc2n(n1)CCN(C1CCCCC1)C2)c1cnn2ccccc12 -7.31%
CCN(C)S(=O)(=O)NCC1CCN(c2cnn(C)c(=O)c2)C1 (stereo unspecified) -0.157%
COC(=O)c1cccc(C(=O)N[C@H]2CO[C@H]3[C@@H]2OC[C@H]3OC(=O)Nc2cccc(C(F)(F)F)c2)c1 4.86%
Cc1n[nH]c(C)c1CN1C[C@@H](CO)[C@H](NC(=O)c2ccccc2)C1 -2.85%
CC(=O)N1CCC(N2C[C@@H]3OCC(=O)N[C@@H]3C2)CC1 -2.19% [at 76.7 µM]
Cc1ccccc1-c1cnc2[nH]cc(CC(=O)Nc3cccnc3)c2c1 -2.14% [at 57.5 µM]
COC(=O)[C@H](NC(=O)[C@@H]1C[C@@H](NC(=O)c2ccncc2)CCN1S(=O)(=O)c1ccc(OC)cc1)C(C)C -3.06%
O=C(NCC1CCOCC1)c1cnc2n[nH]c(-c3ccccc3)c2n1 6.45% [at 57.5 µM]
c1cncc(-c2ccnc(NCCCn3nccc3C3CC3)n2)c1 0.0017%
CC(=O)N1CCN(C(=O)C2CCNCC2)C[C@@H]1C(=O)N[C@@H](CC1CCCCC1)C(N)=O -6.76%
COc1cc(C)c2c(c1C)C[C@H](C(C)C(=O)N1CCSCC1)CC2 (stereo partly specified) -5.07% [at 57.5 µM]
CC1(c2ccccc2)CCCN(C(=O)c2cc(-c3ccncc3)n[nH]2)C1 (stereo unspecified) -5.28%
CC1(CNc2ccccc2)COc2ccc(C(=O)NCCc3ccccn3)cc2N1 (stereo unspecified) 8.93% [at 57.5 µM]
COc1ccc(NC(=O)c2nc(C(O)c3cccc(O)c3)oc2C)cn1 (stereo unspecified) -8% [at 57.5 µM]
CCN(Cc1cnn(CC)c1)C(=O)C1COc2ccccc2C1 (stereo unspecified) 11.9%
COc1ccc(C(=O)N[C@H]2CO[C@H]3[C@@H]2OC[C@@H]3n2nnnc2-c2ccc3c(c2)OCO3)cc1 4.63%
O=C(NCCc1csc(-c2ncccn2)n1)C1NCCc2[nH]cnc21 (stereo unspecified) -5.45%
CC(C)c1nc(C2Cc3ccccc3N2C(=O)NCc2ccco2)no1 (stereo unspecified) -0.216%
Cc1noc2c(NC3CCC(O)CC3)cc(-c3ccc(F)cc3)nc12 (stereo unspecified) -3.78% [at 57.5 µM]
CC(=O)Nc1ccc(CN2CCC3(CC2)CN[S+](=O)([O-])c2ccccc2N3)cc1 -0.0615%
COc1ccc(CNC(=O)C[C@@H]2O[C@H](CNCc3cccc(Cl)c3)[C@@H](O)[C@H]2O)cc1 -6.58% [at 57.5 µM]
C[C@@H](NC(=O)Nc1ccccc1)c1onc(-c2ccc(Cl)cc2)c1C(=O)O -9% [at 57.5 µM]
O=C(c1ccccc1OCC1CCCN(C(=O)c2n[nH]c3ccccc23)C1)N1CCOCC1 (stereo unspecified) -10.2%

3 compounds drawn at random from those above:
activity, negative = inhibition, inactive:
CC(=O)N1CCN(C(=O)C[C@@H]2c3nc(NC(=O)C4CCCCC4)sc3C[C@@H]3[C@](C)(CO)[C@H](O)CC[C@]32C)CC1 1.19%
COc1ccc(C(=O)N[C@H]2CO[C@H]3[C@@H]2OC[C@@H]3n2nnnc2-c2ccc3c(c2)OCO3)cc1 4.63%
Cc1ncc2n1C(=O)N(C1CCN(Cc3cccnc3)CC1)C2 -3.34% [at 57.5 µM]
